Assay results taken from PMC5603829.
Results are given in words; binding and its absence hold for the method and conditions named. In cells and extracts the contact can be indirect. Some entries that bind do so weakly or less than the wild type.

The chains behind the UniProt entries cited, without tags or fusion partners.
UniProt Q09472: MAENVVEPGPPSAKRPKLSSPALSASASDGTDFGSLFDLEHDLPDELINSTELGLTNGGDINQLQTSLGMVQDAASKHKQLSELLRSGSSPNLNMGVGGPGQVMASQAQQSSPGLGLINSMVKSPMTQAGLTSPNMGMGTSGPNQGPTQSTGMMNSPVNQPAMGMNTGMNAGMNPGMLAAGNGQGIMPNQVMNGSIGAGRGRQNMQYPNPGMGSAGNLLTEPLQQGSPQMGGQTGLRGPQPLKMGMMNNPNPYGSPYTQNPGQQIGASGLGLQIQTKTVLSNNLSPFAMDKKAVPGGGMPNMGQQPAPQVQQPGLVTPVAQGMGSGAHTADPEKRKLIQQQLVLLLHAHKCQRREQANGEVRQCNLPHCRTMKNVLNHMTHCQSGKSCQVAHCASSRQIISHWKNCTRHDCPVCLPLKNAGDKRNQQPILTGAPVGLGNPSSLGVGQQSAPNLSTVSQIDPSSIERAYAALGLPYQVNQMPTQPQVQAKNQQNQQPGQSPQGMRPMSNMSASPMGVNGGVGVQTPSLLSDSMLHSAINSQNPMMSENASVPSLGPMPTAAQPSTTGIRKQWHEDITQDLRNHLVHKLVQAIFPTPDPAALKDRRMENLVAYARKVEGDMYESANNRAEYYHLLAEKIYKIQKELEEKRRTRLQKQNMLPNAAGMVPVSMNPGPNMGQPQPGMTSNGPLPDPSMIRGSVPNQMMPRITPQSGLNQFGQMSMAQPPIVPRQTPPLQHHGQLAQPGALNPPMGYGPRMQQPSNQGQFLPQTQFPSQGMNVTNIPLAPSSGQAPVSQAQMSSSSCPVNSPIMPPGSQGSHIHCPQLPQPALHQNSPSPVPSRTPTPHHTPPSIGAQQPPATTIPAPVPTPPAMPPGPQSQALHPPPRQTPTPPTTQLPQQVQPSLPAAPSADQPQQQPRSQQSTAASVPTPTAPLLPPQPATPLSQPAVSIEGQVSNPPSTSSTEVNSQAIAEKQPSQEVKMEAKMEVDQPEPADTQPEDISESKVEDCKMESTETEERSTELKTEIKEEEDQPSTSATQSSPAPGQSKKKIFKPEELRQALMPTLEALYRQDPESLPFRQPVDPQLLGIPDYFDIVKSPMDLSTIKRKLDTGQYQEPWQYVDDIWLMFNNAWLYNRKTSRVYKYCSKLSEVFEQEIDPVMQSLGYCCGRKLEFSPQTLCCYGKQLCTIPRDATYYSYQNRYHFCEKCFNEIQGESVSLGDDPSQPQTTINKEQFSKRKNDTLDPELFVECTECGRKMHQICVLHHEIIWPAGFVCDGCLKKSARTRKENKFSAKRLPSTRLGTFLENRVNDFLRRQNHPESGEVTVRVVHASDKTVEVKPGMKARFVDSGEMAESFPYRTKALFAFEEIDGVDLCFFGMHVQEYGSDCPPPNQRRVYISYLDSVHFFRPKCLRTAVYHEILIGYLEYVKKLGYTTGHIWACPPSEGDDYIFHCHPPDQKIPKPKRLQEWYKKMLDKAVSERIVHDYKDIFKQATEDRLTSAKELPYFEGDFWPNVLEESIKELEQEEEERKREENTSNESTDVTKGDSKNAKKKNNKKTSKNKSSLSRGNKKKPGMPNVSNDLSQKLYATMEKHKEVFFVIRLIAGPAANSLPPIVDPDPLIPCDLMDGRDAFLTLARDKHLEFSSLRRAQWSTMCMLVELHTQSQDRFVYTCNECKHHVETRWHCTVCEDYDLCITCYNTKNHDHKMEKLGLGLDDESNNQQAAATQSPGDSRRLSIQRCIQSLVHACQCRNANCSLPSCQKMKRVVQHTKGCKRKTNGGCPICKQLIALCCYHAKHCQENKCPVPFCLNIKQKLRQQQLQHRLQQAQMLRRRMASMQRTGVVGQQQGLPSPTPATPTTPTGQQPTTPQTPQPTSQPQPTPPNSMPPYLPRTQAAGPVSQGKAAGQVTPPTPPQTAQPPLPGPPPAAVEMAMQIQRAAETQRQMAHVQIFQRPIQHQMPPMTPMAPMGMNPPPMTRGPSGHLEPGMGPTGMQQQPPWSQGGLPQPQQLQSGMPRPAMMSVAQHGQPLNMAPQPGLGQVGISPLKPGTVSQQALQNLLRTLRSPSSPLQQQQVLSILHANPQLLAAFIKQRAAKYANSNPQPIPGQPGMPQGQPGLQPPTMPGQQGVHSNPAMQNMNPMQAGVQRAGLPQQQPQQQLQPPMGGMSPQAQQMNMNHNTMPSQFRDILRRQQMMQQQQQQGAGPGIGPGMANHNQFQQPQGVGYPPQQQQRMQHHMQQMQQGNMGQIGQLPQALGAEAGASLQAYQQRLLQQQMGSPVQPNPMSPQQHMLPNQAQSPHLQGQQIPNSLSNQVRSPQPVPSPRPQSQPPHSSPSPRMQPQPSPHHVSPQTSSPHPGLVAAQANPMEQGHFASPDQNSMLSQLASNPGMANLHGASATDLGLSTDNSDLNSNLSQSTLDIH
UniProt P49407: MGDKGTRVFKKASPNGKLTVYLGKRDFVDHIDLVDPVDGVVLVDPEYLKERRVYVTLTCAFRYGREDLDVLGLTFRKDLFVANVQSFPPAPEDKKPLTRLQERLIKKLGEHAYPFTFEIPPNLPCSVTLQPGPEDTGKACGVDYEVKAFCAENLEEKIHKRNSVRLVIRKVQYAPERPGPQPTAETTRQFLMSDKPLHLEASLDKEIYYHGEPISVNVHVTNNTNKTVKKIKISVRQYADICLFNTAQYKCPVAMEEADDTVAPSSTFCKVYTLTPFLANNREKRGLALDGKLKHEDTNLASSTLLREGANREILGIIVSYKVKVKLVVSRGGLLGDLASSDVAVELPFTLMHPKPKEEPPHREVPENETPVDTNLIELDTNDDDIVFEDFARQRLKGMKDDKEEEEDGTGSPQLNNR

Molecular target: P300 (human (endogenous in Reh)) (UniProt Q09472)
Test: co-IP; protein extracted from Reh cells infected with scrambled shRNA (R-Scram) or Si-β-Arrestin1 (R-Siβ1) lentivirus; for P300 with Sp1 also Reh cells transfected with shRNA-P300; which protein was precipitated is not told

- binding: binds
Substance: β-Arrestin1 (from UniProt P49407 1-418)
